Assay results: PMC10709353

Biological target: T1, UTP14A (human (endogenous in HeLa)) (UniProt Q9BVJ6)
T1 sequence: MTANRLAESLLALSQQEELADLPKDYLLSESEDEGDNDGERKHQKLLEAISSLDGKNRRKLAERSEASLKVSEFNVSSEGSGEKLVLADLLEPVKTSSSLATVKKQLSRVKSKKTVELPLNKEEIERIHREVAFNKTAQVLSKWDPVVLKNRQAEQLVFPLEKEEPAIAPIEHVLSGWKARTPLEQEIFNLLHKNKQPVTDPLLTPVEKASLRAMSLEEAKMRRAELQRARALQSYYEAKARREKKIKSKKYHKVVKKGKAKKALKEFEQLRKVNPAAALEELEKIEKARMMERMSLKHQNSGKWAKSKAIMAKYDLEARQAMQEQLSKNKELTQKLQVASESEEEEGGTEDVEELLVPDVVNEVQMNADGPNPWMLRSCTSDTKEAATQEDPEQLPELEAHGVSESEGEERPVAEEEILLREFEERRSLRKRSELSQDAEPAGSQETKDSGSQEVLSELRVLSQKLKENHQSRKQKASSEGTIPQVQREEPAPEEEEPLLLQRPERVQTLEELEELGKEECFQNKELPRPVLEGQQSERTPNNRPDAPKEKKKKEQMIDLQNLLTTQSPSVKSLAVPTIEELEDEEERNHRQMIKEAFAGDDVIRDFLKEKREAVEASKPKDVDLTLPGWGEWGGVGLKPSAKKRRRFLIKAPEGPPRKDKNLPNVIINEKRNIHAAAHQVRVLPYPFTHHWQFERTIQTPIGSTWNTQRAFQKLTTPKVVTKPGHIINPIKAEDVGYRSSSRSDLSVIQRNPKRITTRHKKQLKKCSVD
Assay: affinity purification with mass spectrometry; IP of endogenous UTP14A (antibody crosslinked to protein A/G beads) against IgG control from HeLa cells transfected for 72 h with siControl, siSENP3, siSENP5 or siSENP3/5; 50 mM HEPES, 150 mM NaCl, 1.5 mM MgCl2, 1 mM EGTA, 10% glycerol, 1% Triton X-100, pH 7.2, 10 mM NEM; four replicates; label-free quantification

- binding: binds
B1: RRP12 (protein, UniProt Q5JTH9 1-1297)
chain: MGRSGKLPSGVSAKLKRWKKGHSSDSNPAICRHRQAARSRFFSRPSGRSDLTVDAVKLHNELQSGSLRLGKSEAPETPMEEEAELVLTEKSSGTFLSGLSDCTNVTFSKVQRFWESNSAAHKEICAVLAAVTEVIRSQGGKETETEYFAALMTTMEAVESPESLAAVAYLLNLVLKRVPSPVLIKKFSDTSKAFMDIMSAQASSGSTSVLRWVLSCLATLLRKQDLEAWGYPVTLQVYHGLLSFTVHPKPKIRKAAQHGVCSVLKGSEFMFEKAPAHHPAAISTAKFCIQEIEKSGGSKEATTTLHMLTLLKDLLPCFPEGLVKSCSETLLRVMTLSHVLVTACAMQAFHSLFHARPGLSTLSAELNAQIITALYDYVPSENDLQPLLAWLKVMEKAHINLVRLQWDLGLGHLPRFFGTAVTCLLSPHSQVLTAATQSLKEILKECVAPHMADIGSVTSSASGPAQSVAKMFRAVEEGLTYKFHAAWSSVLQLLCVFFEACGRQAHPVMRKCLQSLCDLRLSPHFPHTAALDQAVGAAVTSMGPEVVLQAVPLEIDGSEETLDFPRSWLLPVIRDHVQETRLGFFTTYFLPLANTLKSKAMDLAQAGSTVESKIYDTLQWQMWTLLPGFCTRPTDVAISFKGLARTLGMAISERPDLRVTVCQALRTLITKGCQAEADRAEVSRFAKNFLPILFNLYGQPVAAGDTPAPRRAVLETIRTYLTITDTQLVNSLLEKASEKVLDPASSDFTRLSVLDLVVALAPCADEAAISKLYSTIRPYLESKAHGVQKKAYRVLEEVCASPQGPGALFVQSHLEDLKKTLLDSLRSTSSPAKRPRLKCLLHIVRKLSAEHKEFITALIPEVILCTKEVSVGARKNAFALLVEMGHAFLRFGSNQEEALQCYLVLIYPGLVGAVTMVSCSILALTHLLFEFKGLMGTSTVEQLLENVCLLLASRTRDVVKSALGFIKVAVTVMDVAHLAKHVQLVMEAIGKLSDDMRRHFRMKLRNLFTKFIRKFGFELVKRLLPEEYHRVLVNIRKAEARAKRHRALSQAAVEEEEEEEEEEEPAQGKGDSIEEILADSEDEEDNEEEERSRGKEQRKLARQRSRAWLKEGGGDEPLNFLDPKVAQRVLATQPGPGRGRKKDHGFKVSADGRLIIREEADGNKMEEEEGAKGEDEEMADPMEDVIIRNKKHQKLKHQKEAEEEELEIPPQYQAGGSGIHRPVAKKAMPGAEYKAKKAKGDVKKKGRPDPYAYIPLNRSKLNRRKKMKLQGQFKGLVKAARRGSQVGHKNRRKDRRP

These are yes or no findings as the source states them, for the method shown. Binding seen in cells or lysates may run through a third protein. These calls come from enrichment with a bait or labelling near it, and not all partners need be listed.
